According to patent publication US12286452B2, “Amphiphilic aminoglycoside connexin hemichannel inhibitors” (Texas Tech University System, priority 2018, dated 2025):
Some results were stated once for a whole list of compounds, not compound by compound.

Test system: HeLa cells
Assay: Cytotoxicity assay in HeLa cells
Details: at 100 mg/mL

SMILES	reduction of cell viability
NCC1OC(OC2C(N)CC(N)C(OC3OC(COCc4ccc5ccccc5c4)C(OCc4ccc5ccccc5c4)C(N)C3O)C2O)C(O)C(O)C1O (centres unmarked) [Compound 14, 4″,6″-Di-O-(2-naphthalenmethyl) kanamycin]	40-60%
NCC1OC(OC2C(N)CC(N)C(OC3OC(COCc4cccc(-c5ccccc5)c4)C(OCc4cccc(-c5ccccc5)c4)C(N)C3O)C2O)C(O)C(O)C1O (centres unmarked) [Compound 16, 4″,6″-Di-O-(3-phenylbenzyl)-kanamycin]	40-60%
